Experimental data as given in PMC11126613.
These are yes or no findings as the source states them, for the method shown. Binding seen in cells or lysates may run through a third protein. A yes stands for co-enrichment or nearness to the bait. Other partners may have been found.

B1: Golgi SNAP receptor complex 1 (protein, UniProt O88630 1-250)
chain: MAAGTSNYWEDLRKQARQLENELDLKLVSFSKLCTSYSHSGSRDGGRDRYSSDTTPLLNGSSQDRMFETMAIEIEQLLARLTGVNDKMAEYTHSAGVPSLNAALMHTLQRHRDILQDYTHEFHKTKANFTAIRERENLMGSVRKDIESYKSGSGVNNRRTELFLKEHDHLRNSDRLIEETISIAMATKENMTSQRGMLKSIHSKMNTLANRFPAVNSLIQRINLRKRRDSLILGGVIGICTILLLLYAFH
B2: Kif4 (protein, UniProt P33174 1-1231)
chain: MKEEVKGIPVRVALRCRPLVSKEIKEGCQTCLSFVPGEPQVVVGNDKSFTYDFVFDPSTEQEEVFNTAVAPLIKGVFKGYNATVLAYGQTGSGKTYSMGGAYTAEQEHDSAIGVIPRVIQLLFKEINKKSDFEFTLKVSYLEIYNEEILDLLCSSREKATQINIREDPKEGIKIVGLTEKTVLVASDTVSCLEQGNNSRTVASTAMNSQSSRSHAIFTISIEQRKKNDKNSSFRSKLHLVDLAGSERQKKTKAEGDRLREGININRGLLCLGNVISALGDDKKGNFVPYRDSKLTRLLQDSLGGNSHTLMIACVSPADSNLEETLNTLRYADRARKIKNKPIINIDPQAAELNHLKQQVQQLQILLLQAHGGTLPGDINVEPSENLQSLMEKNQSLVEENEKLSRGLSEAAGQTAQMLERIILTEQANEKMNAKLEELRRHAACKVDLQKLVETLEDQELKENIEIICNLQQVIAQLSDEAAACMTATIDTAGEADTQVQSSPDTSRSSDVFSTQHALRQAQMSKELIELNKALALKEALAKKMTQNDNQLQPIQFQYQDNIKNLESEVLSLQREKEELVLELQTAKKDANQAKLSERRRKRLQELEGQIADLKKKLQEQSKLLKLKESTEHTVSKLNQEIRMMKNQRVQLMRQMKEDAEKFRQWKQQKDKEVIQLKERDRKRQYELLKLERNFQKQSNVLRRKTEEAAAANKRLKDALQKQKEVAEKRKETQSRGMESTAARMKNWLGNEIEVMVSTEEAKRHLNGLLEERKILAQDVAQLKEKRESGENPPLKLRRRTFSYDEIHGQDSGAEDSIAKQIESLETELELRSAQIADLQQKLLDAESEDRPKQRWESIATILEAKCAIKYLVGELVSSKILVSKLESSLNQSKASCIDVQKMLFEEQNHFAKIETELKEELVKVEQQHQEKVLYLLSQLQQSQMTEKQLEESVSEKEQQLLSTLKCQEEELRKMQEVCEQNQQLLQENSAIKQKLTLLQVASKQKPHLTRNIFQSPDSSFEYIPPKPKPCRIKEKCLEQSFAVEGLQYYSEPSVAEQDNEDSDDHADEEWIPTKLVKVSKKSIQGCSCKGWCGNKQCGCRKQKSDCNVSCSCDPTKCRNRHQNQDNSDAIELNQDSENSFKLEDPTEVTSGLSFFHPICATPSSKILKEMCDADQVQLKQPVFVSSSDHPELKSIASESQENKAIGKKKKRALASNTSFFSGCSPIQEESH
B3: Sorting nexin 18 (protein, UniProt Q91ZR2 1-614)
chain: MALRARALYDFKSENPGEISLREHEVLSLCSEQDIEGWLEGINSRGDRGLFPASYVQVIRAPEPGPPADGGPGAPARYANVPPGGFEPLPAAPPAAFPPLLQPQASPGSFQPPGAGFPYGGGALQPSPQQLYGGYQASLGSDDDWDDEWDDSSTVADEPGALGSGAYPDLDGSSSAGGGAAGRYRLSTRSDLSLGSRGVSAPPAPSVWSQELGHGEPQPQSLLHLRQVGRGGLRAGRGVRLREGWGQAVRGAGSYGPEWQENPYPFQCTIDDPTKQTKFKGMKSYISYKLVPTHTQVPVHRRYKHFDWLYARLAEKFPVISVPHLPEKQATGRFEEDFISKRRKGLIWWMNHMASHPVLAQCDVFQHFLTCPSSTDEKAWKQGKRKAEKDEMVGANFFLTLSTPPAAALDLQEVESKIDGFKCFTKKMDDSALQLNHTANEFARKQVTGFKKEYQKVGQSFRGLSQAFELDQQAFSVGLNQAIAFTGDAYDAIGELFAEQPRQDLDPVMDLLALYQGHLANFPDIIHVQKGALTKVKESRRHVEEGKMEVQKADGIQDRCNTISFATLAEIHHFHQIRVRDFKSQMQHFLQQQIIFFQKVTQKLEEALHKYDSV
B4: Rab3GAP2 (protein, UniProt Q8BMG7 1-1366)
chain: MACSIVQFCSFQDLQSARDFLFPHLREETPGALKRDPSKTSSWEDDSWGAWEETEPREPEEEGNTSKTQKNSWLQECVLSLSPTSDLMVIAREQKAAFLVRKWKHGDKGKEEMQFAVGWSGSVSAEEGEYVTSALCIPLASQKRSSTGRPDWTCIVVGFTSGYVRFYTEGVLLLAQLLNEDKVLQLKCRTYEIPRHPGVTEQNEELSILYPAAIVTIDGFSLFQSLRACRNQVAKAAASGNENIQPPPLAYKKWGLQDIDTIIDHASVGIMTLSPFDQMKTASNIGGFNAAIKNSPPAMSQYITVGSSPFTGFFYALEGSTQPLLSHVALAVASKLTSALFSAASGWLGWKSKHEEDTVQKQKPKMEPATPLAVRFGLPDSRRHGESICLSPCNTLAAVTDDFGRVILLDVARGIAIRMWKGYRDAQVGWIQIVEDLHERVPEKGGFSPFGNTQGPSRVAQFLVIYAPRRGILEVWNTQQGPRVGAFNVGKHCRLLYPGYKIMGLNNVTSQSWQPQTYQICLVDPVSASVKAVNVPFHLALSDKKSERAKDLHLVKKLSALLRAKSPRPDSFETEIKELILDIKYPATKKQALESILASDRLSFSCLRNVTQTLMDTLKNQELESVDEGLLQFCASKLKLLHLYESVSQLNTLDFHSDTPFSDNDLAVLLRLDDKELLKLRALLEKYKQENTKATVRFSEDADRVLPVKTFLEYLEYEKDALSIRKIGEEECVALGSFFFWKCLHGKSSTEEMCHSLESAGLSPQQLLSLLLSVWLSKEKDILDKPQSVCCLHTMLSLLSKMKVAIDETWDSQSVSPWWQQMRMACIQSENSGAALLSAHVGHSVAAQMSSGATDKKFSQMELDADAEALTDSWEALSLDTEYWKLLLRQLEDCLILQTLLHSKLSPPAAKAPSLQSEPLPRLSVKKLLEGGKGGIADSVAKWIFKQDLSPELLKCANKERDVENPDEPREDLLHLAYEQFPCSLELDVLHAHCCWEYVVQWNKDPEEARFLVRSIEHLKQILNPHVQNGIALMMWNTFLVKRFSAATYLMDKVGKSPKDRLCRRDVGMSDTALTSFLGSCLELLQTSLEADISRDEVQVPVLDTEDAWLSVEGPISIVELALEQKPIHYPLVEHHSVLCSILYASMRFSLKSVKPLALFDSKGKNAFFKDLTSIQLLPSGEMDPNFISVRQQFLLKVVSAAVQAQHSKDKDPSAEAANTHWKDLNWPGLAVDLAHHLQVSDDVIRRHYVGELYSHGADLLGEEAIFQVQDKEVLASQLLVLTGQRLAHALFHTQTKEGMELLARLPPTLCTWLKAMNPQDLQNTGVPIAATAKLVHKVMELLPEKHGQYSLALHLIDAVEAMATL
B5: Kifc1 (protein, UniProt Q9QWT9 1-674)
chain: MDVQAQRPPLLEVKRNVELKAALVKSSSRVPLSASRLKRGPDQMEDALEPAKKRTRVMGAVTKVDTSRPRGPLLSTVSQTQGHTAAQKGPKKTGPRGCSAIGTVLRSQKPVPAAPAQKPGTSTAPVVVGKRAGKRPAWDLKGQLCDLNEELKRYREKTQTLELENRGLREQLREVQEQATTLGTERNTLEGELASVRSRAEQDQQRLETLSARVLELEECLGTRERLLQELQGERLQLQEERSTLSTQLEEQERRFQATEAALSSSQEEVVCLRQKTEAQVTLLAEQGDRLYGLEMERRRLHNQLQELKGNIRVFCRVRPVLEGESTPSPGFLVFPPGPAGPSDPPTGLSLSRSDDRRSTLTGAPAPTVRHDFSFDRVFPPGSKQEEVFEEIAMLVQSALDGYPVCIFAYGQTGSGKTFTMEGGPRGDPQLEGLIPRAMRHLFSVAQEMSGQGWTYSFVASYVEIYNETVRDLLATGPRKGQGGECEIRRASPGSEELTVTNARYVPVSCEKEVEALLHLAHQNRAVAHTAQNKRSSRSHSVFQLQISGEHAARGLQCGAPLNLVDLAGSERLDPGLHLGPGERDRLRETQAINSSLSTLGLVIMALSNKESHVPYRNSKLTYLLQNSLGGSAKMLMFVNISPLEENVSESLNSLRFASKVNQCVIGTAQANKK
B6: Rab13 (protein, UniProt Q9DD03 1-202)
chain: MAKAYDHLFKLLLIGDSGVGKTCLIIRFAEDNFNSTYISTIGIDFKIRTVDIEGKRIKLQVWDTAGQERFKTITTAYYRGAMGIILVYDITDEKSFENIQNWMKSIKENASAGVERLLLGNKCDMEAKRQVQREQAEKLAREHRIRFFETSAKSSVNVDEAFSSLARDILLKTGGRRSGTNSKPSSTGLKTSDKKKNKCLLG
B7: Kif23 (protein, UniProt E9Q5G3 1-953)
chain: MKSAKAKTVRKPVIKKGSQTNLKDPVGVYCRVRPLSFPDQECCVEVINSTTLQLHTPEGYRLNRNGDYKETQYSFKRVFGTHTTQKELFDVVANPLVDDLIHGKNGLLFTYGVTGSGKTYTMTGSPGSGGLLPRCLNMIFNSIGSFQAKRYVFKSNDRNSMEIQCEVDALLERQKREALPIPKTPSSKRQADPEFADMINVQEFCKAEEVDEDSVYGVFVSYIEIYNNYIYDLLEEVQFDPIKPKLPQSKTLREDKNHNMYVAGCTEVEVKSTEEAFEVFWRGQKKRRIANTHLNRESSRSHSVFSIKLVQAPLDADGDNVLQEKEQITISQLSLVDLAGSERTNRTKAEGNRLREAGNINQSLMTLRTCMEVLRENQTYGTNKMVPYRDSKLTHLFKNYFDGEGKVRMIVCVNPKAEDYEESLQVMRFAEVTQEVEVARPVDKVICGLTPGRRYRNLPRGGPVGDEPLVPEVILQSFPPLPPCKLLDINDEETLPKLADTLEKRHHLRQLMTEDLNKKCLAFKALLKEFDNSLSNKENYVQEKLNEREKVISGQKLEIERLEKKNKTLEYKIEILEKTTTIYEEDKRNLQQELESQNQKLQRQFSDKRRLEARLQGMVTETSMKWQKECERRVAATQLEMQNKLWVKDEKLKQLKAIVTEPKPEKPERPSRERDREKIIPRSVSPSPLPLSSNNIAQISNGQQLMSQPQLHRRSNSCSSISVASCISEWEQKLSPFSTPVNVTSLARHRQQEPGQSKTCIVSDRRRGMCWTEGREMVPTFSSEIGVEEDHCRRNTPIPVRHRRSRSAGSRWVDHKPASNVQTETVMQPHVPHAITVSVANEKALAKCEKYMLTHQELASDGEIQTKVIKGDVYKTRGGGQSVQFTDIETLKQELPTGSRKRRSSTLAPAQPDGTESEWTDVETRCSVAVEMRAGSQLGPGYQHHAQPKRKKP

target: α5 integrin (mouse (endogenous in mouse lung microvascular ECs)); assay: affinity purification with mass spectrometry; endogenous α5 integrin immunoprecipitated (Dynabeads Protein G with anti-α5 integrin antibody, 4 °C) from mouse microvascular EC lysates: WT/Ctrl, and siNRP1, siNRP2, siNRP1/2, sip120RasGAP ECs; α5.EC KO lysates as control for non-specific binding; LFQ-DIA-MS, Spectronaut, p < 0.01 cutoff; three independent experiments

binding	Binder
binds	B1
binds	B2
binds	B3
binds	B4
binds	B5
binds	B6
binds	B7
